This is an account of results in publication PMC9537309.

The target of data set [1] is T1, DND1 extended RRM1 (human) (UniProt Q8IYX4).
T1 sequence (looked up): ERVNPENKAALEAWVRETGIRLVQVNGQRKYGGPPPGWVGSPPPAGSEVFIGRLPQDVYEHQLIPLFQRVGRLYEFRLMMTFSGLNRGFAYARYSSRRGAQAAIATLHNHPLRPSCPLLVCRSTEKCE
Briefly: NMR titration. To be noted: NMR: 100 mM potassium phosphate pH 6.6, 1 mM DTT, 298 K (or 20 mM MES pH 6.6, 100 mM NaCl), Supplementary Fig. 3: 25 mM NaCl, 2 mM DTT, pH 6.3, 303 K, recombinant protein, residues 12-139, protein details: N-terminal 6xHis, TEV-cleaved.

In data set [2] the target is T2, DND1 RRM12 W215F (human) (UniProt Q8IYX4).
T2 sequence (looked up): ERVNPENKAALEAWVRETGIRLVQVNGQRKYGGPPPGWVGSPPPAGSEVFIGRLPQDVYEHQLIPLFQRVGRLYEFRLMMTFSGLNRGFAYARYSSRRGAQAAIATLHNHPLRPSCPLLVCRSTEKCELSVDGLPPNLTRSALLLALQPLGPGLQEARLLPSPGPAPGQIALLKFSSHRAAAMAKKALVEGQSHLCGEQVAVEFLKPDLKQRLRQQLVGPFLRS
The data set is described as follows: NMR titration. To be noted: smaller shift changes than WT; NMR: 100 mM potassium phosphate pH 6.6, 1 mM DTT, 298 K (or 20 mM MES pH 6.6, 100 mM NaCl); Supplementary Fig. 3: 25 mM NaCl, 2 mM DTT, pH 6.3, 303 K; recombinant protein; residues 12-235; protein details: N-terminal 6xHis, TEV-cleaved.

For data set [3], the target named is T3, DND1 RRM2 (human) (UniProt Q8IYX4).
T3 sequence (looked up): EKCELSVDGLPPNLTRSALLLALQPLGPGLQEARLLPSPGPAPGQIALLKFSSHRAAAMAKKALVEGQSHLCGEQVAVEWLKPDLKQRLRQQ
Briefly: NMR titration. As to conditions: NMR: 100 mM potassium phosphate pH 6.6, 1 mM DTT, 298 K (or 20 mM MES pH 6.6, 100 mM NaCl); Supplementary Fig. 3: 25 mM NaCl, 2 mM DTT, pH 6.3, 303 K; recombinant protein; residues 136-227; protein details: N-terminal 6xHis, TEV-cleaved.

Data set [4] has as its target T4, DND1 RRM12 K197A (human) (UniProt Q8IYX4).
T4 sequence (looked up): T2 sequence (looked up) with K186A, F204W
Briefly: NMR titration. To be noted: RRM2 helix 2 exchange-broadened; NMR: 100 mM potassium phosphate pH 6.6, 1 mM DTT, 298 K (or 20 mM MES pH 6.6, 100 mM NaCl); Supplementary Fig. 3: 25 mM NaCl, 2 mM DTT, pH 6.3, 303 K; recombinant protein; residues 12-235; protein details: N-terminal 6xHis, TEV-cleaved.

The target of data set [5] is T1, DND1 extended RRM1 (human). Briefly: ITC. To be noted: lower bound, ITC: 100 mM potassium phosphate pH 6.6, 1 mM 2-mercaptoethanol, 25 C, recombinant protein, residues 12-139, protein details: N-terminal 6xHis, TEV-cleaved.
Data set [6] addresses T2, DND1 RRM12 W215F (human). The data set is described as follows: ITC. As to conditions: weaker binding, lower bound, N = 0.919; ITC: 100 mM potassium phosphate pH 6.6, 1 mM 2-mercaptoethanol, 25 C; recombinant protein; residues 12-235; protein details: N-terminal 6xHis, TEV-cleaved.
The target in data set [7] is T5, DND1 RRM12 (tandem RRMs) WT (human) (UniProt Q8IYX4).
T5 sequence (looked up): T2 sequence (looked up) with F204W
The data set is described as follows: ITC. As to conditions: ITC: 100 mM potassium phosphate pH 6.6, 1 mM 2-mercaptoethanol, 25 C, recombinant protein, residues 12-235, protein details: N-terminal 6xHis, TEV-cleaved.

In data set [8] the target is T5, DND1 RRM12 (tandem RRMs) WT (human). The data set is described as follows: NMR titration. As to conditions: NMR: 100 mM potassium phosphate pH 6.6, 1 mM DTT, 298 K (or 20 mM MES pH 6.6, 100 mM NaCl); Supplementary Fig. 3: 25 mM NaCl, 2 mM DTT, pH 6.3, 303 K; recombinant protein; residues 12-235; protein details: N-terminal 6xHis, TEV-cleaved.
[9] abbreviates: N set to 1, weak binding, lower bound.

Where a chain is given by its changes, count along the chain named. For some of these results: Negatives hold for the conditions tested. For some of these results: At least one verdict was read from the data and is not stated in words by the source. Where a protein sequence is shown, tags need not be part of it. For some of these results: A weaker result is weaker than the reference pair of the same experiment. For some of these results: The exact form of at least one protein or probe is not confirmed.

For CUUAUUUG, the binding result in data set [1] was “binds more weakly”; in data set [2] it was “binds more weakly”; in data set [3], “no binding”; in data set [4], “binds more weakly”. The Kd is over 54 µM in data set [5] (N set to 1, weak binding) and over 10 µM in data set [6].

Take UCCUUAUUU: the Kd in data set [7] (table column assigned from order and legend) was 1.2 µM.

In the case of UUAUUU, in data set [1] (smaller shifts than with RRM12), the binding result is on record as “binds more weakly”. Further, the Kd in data set [5] (weak binding, table column assigned from order) was over 35 µM.

UUUUUAC: the binding result in data set [8] is reported as “binds more weakly”. Further, the Kd in data set [7] (setting [9]) is over 35 µM.

Turning to UUUUUCC, the binding result in data set [8] was “binds more weakly”. In addition, the Kd in data set [7] (setting [9]) is over 100 µM.

A word on the Kd: it is the constant that tells how readily two partners part at equilibrium.
